{"sequences": {"note": "Protein sequences, listed by entry. Tags and fused reporters are not part of them. Lines headed by an entry give the natural chain unless they say otherwise; changes in a name come on top.", "UniProt Q16602": "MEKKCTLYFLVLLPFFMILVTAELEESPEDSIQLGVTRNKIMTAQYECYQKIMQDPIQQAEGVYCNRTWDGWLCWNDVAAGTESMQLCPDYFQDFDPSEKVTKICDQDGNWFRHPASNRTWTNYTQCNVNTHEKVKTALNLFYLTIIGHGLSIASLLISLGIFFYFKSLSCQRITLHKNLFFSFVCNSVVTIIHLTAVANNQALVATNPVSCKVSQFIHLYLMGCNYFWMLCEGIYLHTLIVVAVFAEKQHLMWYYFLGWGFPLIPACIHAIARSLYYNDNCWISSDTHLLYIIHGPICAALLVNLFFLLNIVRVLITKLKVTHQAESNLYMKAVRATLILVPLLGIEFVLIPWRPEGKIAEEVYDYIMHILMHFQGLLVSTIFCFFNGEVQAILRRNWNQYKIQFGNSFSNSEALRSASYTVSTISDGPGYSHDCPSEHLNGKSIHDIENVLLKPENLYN"}, "source": "patent US20160347810A1", "about": "(AFASCI, published 2016)", "target": "T1, human calcitonin CGRP1 (CGRP1) membrane (human, UniProt Q16602 23-461; O60894 27-148)", "T1 construct": "whole, on cells; Purchased membrane preparation (Perkin Elmer), homogenised in assay buffer; the receptor stood in membranes, not intact cells; also called CGRP receptors; CGRP receptor", "test": "radioligand competition binding on human CGRP1 receptor membranes", "note": "No constants are given. Whether binding was seen depends on the method and setting. Some binding calls cover weakened binding; strength is not graded here."}
{"binder": "YVPTAVGPFAF (C-terminal amide)", "note": "[CGRP 27-37]", "values": [{"measurement": "binding", "result": "binds"}]}
